From paper PMC8960663
No constants are given. Whether binding was seen depends on the method and setting. Binding seen in cells or lysates may run through a third protein. Binding calls can cover weak binding; strength is not graded here.

Molecular target: BRG1-mut (BRG1-K798R) (human)
Assay: co-IP; total cell extract (150 mM NaCl, 20 mM Hepes pH 7.4, 0.5% Triton-X100, 0.1% DOC) of C33A transfected with BRG1-wt or BRG1-mut; BRG1 antibody, hnRNPL and SAM68; immunoblot

B1: hnRNPL (protein, UniProt P14866 1-589)
chain: MSRRLLPRAEKRRRRLEQRQQPDEQRRRSGAMVKMAAAGGGGGGGRYYGGGSEGGRAPKRLKTDNAGDQHGGGGGGGGGAGAAGGGGGGENYDDPHKTPASPVVHIRGLIDGVVEADLVEALQEFGPISYVVVMPKKRQALVEFEDVLGACNAVNYAADNQIYIAGHPAFVNYSTSQKISRPGDSDDSRSVNSVLLFTILNPIYSITTDVLYTICNPCGPVQRIVIFRKNGVQAMVEFDSVQSAQRAKASLNGADIYSGCCTLKIEYAKPTRLNVFKNDQDTWDYTNPNLSGQGDPGSNPNKRQRQPPLLGDHPAEYGGPHGGYHSHYHDEGYGPPPPHYEGRRMGPPVGGHRRGPSRYGPQYGHPPPPPPPPEYGPHADSPVLMVYGLDQSKMNCDRVFNVFCLYGNVEKVKFMKSKPGAAMVEMADGYAVDRAITHLNNNFMFGQKLNVCVSKQPAIMPGQSYGLEDGSCSYKDFSESRNNRFSTPEQAAKNRIQHPSNVLHFFNAPLEVTEENFFEICDELGVKRPSSVKVFSGKSERSSSGLLEWESKSDALETLGFLNHYQMKNPNGPYPYTLKLCFSTAQHAS
  binding: binds
